Paper PMC3251601
No constants are given. Whether binding was seen depends on the method and setting. In cells and extracts the contact can be indirect. Some entries that bind do so weakly or less than the wild type.

Sequences of proteins named here, by UniProt entry; tags and fusion partners are left off.
UniProt P04792: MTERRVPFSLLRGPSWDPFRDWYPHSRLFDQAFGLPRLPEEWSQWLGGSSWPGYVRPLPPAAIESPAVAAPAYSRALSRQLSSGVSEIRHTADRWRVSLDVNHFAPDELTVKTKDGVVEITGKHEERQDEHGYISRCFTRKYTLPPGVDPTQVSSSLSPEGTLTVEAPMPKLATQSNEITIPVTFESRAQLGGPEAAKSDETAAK
UniProt Q9UBN7: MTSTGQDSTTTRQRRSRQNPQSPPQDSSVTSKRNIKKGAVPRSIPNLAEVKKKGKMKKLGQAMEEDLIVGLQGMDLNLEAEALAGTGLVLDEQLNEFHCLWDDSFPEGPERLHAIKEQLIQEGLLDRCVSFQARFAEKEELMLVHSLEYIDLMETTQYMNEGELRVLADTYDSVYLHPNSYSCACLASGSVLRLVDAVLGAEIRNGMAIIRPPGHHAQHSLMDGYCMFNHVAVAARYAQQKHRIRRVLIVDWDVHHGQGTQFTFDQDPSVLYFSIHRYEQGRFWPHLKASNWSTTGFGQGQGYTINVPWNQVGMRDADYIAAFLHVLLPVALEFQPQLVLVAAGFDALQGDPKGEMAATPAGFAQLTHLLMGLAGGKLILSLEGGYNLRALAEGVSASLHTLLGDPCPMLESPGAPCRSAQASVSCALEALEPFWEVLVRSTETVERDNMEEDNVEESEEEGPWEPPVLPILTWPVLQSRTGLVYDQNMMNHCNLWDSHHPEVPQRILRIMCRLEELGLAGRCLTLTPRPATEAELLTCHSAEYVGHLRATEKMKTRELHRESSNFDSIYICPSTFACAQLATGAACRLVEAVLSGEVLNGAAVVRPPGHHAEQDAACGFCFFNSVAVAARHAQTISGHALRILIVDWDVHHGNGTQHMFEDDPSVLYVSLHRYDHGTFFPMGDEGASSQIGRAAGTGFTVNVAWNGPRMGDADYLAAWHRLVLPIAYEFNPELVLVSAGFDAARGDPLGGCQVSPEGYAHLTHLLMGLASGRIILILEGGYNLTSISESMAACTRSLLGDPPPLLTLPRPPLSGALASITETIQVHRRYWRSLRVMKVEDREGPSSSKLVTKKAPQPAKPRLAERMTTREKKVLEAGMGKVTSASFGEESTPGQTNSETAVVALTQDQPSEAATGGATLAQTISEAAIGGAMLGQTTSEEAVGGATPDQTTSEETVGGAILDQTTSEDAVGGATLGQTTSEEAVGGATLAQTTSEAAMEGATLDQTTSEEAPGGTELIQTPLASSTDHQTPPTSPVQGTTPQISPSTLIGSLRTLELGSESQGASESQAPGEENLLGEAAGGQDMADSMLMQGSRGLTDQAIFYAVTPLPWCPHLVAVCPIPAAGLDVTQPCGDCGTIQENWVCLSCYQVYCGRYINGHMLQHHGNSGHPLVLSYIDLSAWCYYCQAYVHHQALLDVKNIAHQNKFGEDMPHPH
UniProt P52630: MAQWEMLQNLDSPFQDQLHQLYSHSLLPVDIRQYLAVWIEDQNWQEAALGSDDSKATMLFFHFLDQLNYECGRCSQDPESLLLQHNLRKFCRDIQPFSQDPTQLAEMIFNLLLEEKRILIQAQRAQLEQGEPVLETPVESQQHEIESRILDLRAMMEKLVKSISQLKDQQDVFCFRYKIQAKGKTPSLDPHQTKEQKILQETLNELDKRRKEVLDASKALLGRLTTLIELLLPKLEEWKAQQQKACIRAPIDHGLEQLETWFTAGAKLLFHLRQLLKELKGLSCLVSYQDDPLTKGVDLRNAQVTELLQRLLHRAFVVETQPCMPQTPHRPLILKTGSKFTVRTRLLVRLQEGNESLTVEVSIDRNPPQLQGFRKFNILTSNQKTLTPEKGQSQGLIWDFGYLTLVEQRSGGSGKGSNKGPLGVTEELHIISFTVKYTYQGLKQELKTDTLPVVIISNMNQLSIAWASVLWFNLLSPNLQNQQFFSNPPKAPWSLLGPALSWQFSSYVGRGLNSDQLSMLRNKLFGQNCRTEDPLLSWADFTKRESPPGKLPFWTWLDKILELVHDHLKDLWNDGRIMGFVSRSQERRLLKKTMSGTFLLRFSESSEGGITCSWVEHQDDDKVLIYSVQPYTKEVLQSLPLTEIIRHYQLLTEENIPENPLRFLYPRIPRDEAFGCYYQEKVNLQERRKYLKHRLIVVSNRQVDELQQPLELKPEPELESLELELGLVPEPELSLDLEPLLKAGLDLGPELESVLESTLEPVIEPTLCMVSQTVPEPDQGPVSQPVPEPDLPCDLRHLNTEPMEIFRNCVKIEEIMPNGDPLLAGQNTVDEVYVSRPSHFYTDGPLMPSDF

Target: Heat shock protein 27 (Hsp27) (human (endogenous in HeLa)) (UniProt P04792)
Assay: co-IP; goat polyclonal anti-Hsp27 antibody (1 h, 4°C) then protein G sepharose, on 2 ml of pooled sepharose CL-6B column fractions of HeLa lysate positive for the tested protein; immunoblot of the eluate

histone deacetylase 6 (HDAC6) (from UniProt Q9UBN7 1-1215)
binding: binds

signal transducer and activator of transcription 2 (STAT2) (from UniProt P52630 1-851)
binding: binds
